Data as given in paper PMC5223209, “New insights into the GINS complex explain the controversy between existing structural models” (Scientific Reports, 2017).
Results are given in words; binding and its absence hold for the method and conditions named. Some binding calls cover weakened binding; strength is not graded here. Tags and fused reporters may be left off the sequences shown. Each block holds one molecule with its values, some of them ahead of it.

Sequences of proteins named here, by UniProt entry; tags and fusion partners are left off.
UniProt Q9BRT9: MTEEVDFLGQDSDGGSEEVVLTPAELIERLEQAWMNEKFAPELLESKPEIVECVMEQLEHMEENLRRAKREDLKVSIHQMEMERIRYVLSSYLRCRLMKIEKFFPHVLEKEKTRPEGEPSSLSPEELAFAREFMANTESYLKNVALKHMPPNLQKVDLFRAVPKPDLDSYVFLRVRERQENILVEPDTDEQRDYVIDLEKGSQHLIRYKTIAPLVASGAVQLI

Assays:
[1] = target: T1, human Psf3 with a cleavable N-terminal histidine tag (human) (UniProt Q9BRX5); experiment: SEC; hGINS subunits co-expressed in E. coli and co-purified by Ni-affinity (His tag on Psf3), heparin and size-exclusion chromatography; subunits co-eluted up to 500 mM NaCl plus 500 mM imidazole, pH 6.0-8.0; tetramer peak fraction run again minutes or days after elution; both purified
T1 sequence: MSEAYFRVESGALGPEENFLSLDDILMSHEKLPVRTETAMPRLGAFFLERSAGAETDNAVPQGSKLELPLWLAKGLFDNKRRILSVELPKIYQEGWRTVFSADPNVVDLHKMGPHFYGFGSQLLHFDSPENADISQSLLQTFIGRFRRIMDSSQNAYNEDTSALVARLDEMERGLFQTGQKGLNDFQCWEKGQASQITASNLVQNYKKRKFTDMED

[2] = target: T1, human Psf3 with a cleavable N-terminal histidine tag (human); experiment: SAXS; Elettra SAXS beamline; full length hGINS at 1-4 mg/ml and hGINS-ΔB at 0.67-5 mg/ml; purified co-expressed complexes; both purified
[3] = target: T1, human Psf3 with a cleavable N-terminal histidine tag (human); experiment: SEC-MALS; 100 uL of 5 and 10 mg/mL hGINS on a Superdex 200 column coupled with differential refractive index detection; both purified

- binding [1]: binds
- binding [2]: binds
- binding [3]: binds
Molecule: human Sld5 (from UniProt Q9BRT9 1-223)

- binding [1]: binds
- binding [2]: binds
- binding [3]: binds
B1: human Psf2 (protein, UniProt Q9Y248 1-185)
chain: MDAAEVEFLAEKELVTIIPNFSLDKIYLIGGDLGPFNPGLPVEVPLWLAINLKQRQKCRLLPPEWMDVEKLEKMRDHERKEETFTPMPSPYYMELTKLLLNHASDNIPKADEIRTLVKDMWDTRIAKLRVSADSFVRQQEAHAKLDNLTLMEINTSGTFLTQALNHMYKLRTNLQPLESTQSQDF

- binding [2]: binds
B2: human Psf1 lacking the B domain (Psf1ΔB) (domain or fragment, UniProt Q14691 1-149)
chain: MFCEKAMELIRELHRAPEGQLPAFNEDGLRQVLEEMKALYEQNQSDVNEAKSGGRSDLIPTIKFRHCSLLRNRRCTVAYLYDRLLRIRALRWEYGSVLPNALRFHMAAEEMEWFNNYKRSLATYMRSLGGDEGLDITQDMKPPKSLYIE

- binding [1]: binds
- binding [2]: binds
- binding [3]: binds
B3: human Psf1 (protein, UniProt Q14691 1-196)
chain: MFCEKAMELIRELHRAPEGQLPAFNEDGLRQVLEEMKALYEQNQSDVNEAKSGGRSDLIPTIKFRHCSLLRNRRCTVAYLYDRLLRIRALRWEYGSVLPNALRFHMAAEEMEWFNNYKRSLATYMRSLGGDEGLDITQDMKPPKSLYIEVRCLKDYGEFEVDDGTSVLLKKNSQHFLPRWKCEQLIRQGVLEHILS
